This is one part of the list.
Experiments:
Assay in all cases: log2 fold change, soluble protein after heating vs DMSO (PISA); higher = thermal stabilisation; K562 lysate, 10 uM; active = over 0.2 and 3.5 SD of the protein, either way, in both replicates (recomputed)
ibrutinib = compound: C=CC(=O)N1CCC[C@@H](n2nc(-c3ccc(Oc4ccccc4)cc3)c3c(N)ncnc32)C1 [ibrutinib]
Outline: (§1)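 Log-two fold change in thermal stability relative to solvent controls is reported from duplicates. For each sample, crude K562 extract from dounce-homogenised pellets in PBS pH 7.4 with 1 mM MgCl2, at 1 mg/mL protein, was treated with 10 μM compound for 30 min. Aliquots heated for 3 min across 48°C-58°C were pooled, brought to 0.5% NP-40 at 4°C and cleared at 21,000xg for 90 min. The supernatant was quantified by TMTpro 16plex LC-MS/MS with channel sums equalised.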

The chains behind the UniProt entries cited, without tags or fusion partners. Where a name states a change or a piece, a line headed by the entry shows the natural chain unless it says otherwise.
UniProt Q8WU79: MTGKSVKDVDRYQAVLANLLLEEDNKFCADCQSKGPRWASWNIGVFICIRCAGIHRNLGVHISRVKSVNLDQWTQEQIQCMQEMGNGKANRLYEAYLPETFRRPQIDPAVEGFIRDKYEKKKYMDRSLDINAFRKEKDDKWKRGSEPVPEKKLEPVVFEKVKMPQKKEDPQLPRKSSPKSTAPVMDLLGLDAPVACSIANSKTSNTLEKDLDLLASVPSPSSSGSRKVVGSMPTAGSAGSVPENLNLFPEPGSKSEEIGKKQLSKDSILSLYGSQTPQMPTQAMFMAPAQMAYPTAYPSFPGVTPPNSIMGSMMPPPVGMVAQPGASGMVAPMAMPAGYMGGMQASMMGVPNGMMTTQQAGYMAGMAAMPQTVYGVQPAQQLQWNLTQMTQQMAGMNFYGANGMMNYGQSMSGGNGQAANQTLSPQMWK
UniProt Q6NUK1: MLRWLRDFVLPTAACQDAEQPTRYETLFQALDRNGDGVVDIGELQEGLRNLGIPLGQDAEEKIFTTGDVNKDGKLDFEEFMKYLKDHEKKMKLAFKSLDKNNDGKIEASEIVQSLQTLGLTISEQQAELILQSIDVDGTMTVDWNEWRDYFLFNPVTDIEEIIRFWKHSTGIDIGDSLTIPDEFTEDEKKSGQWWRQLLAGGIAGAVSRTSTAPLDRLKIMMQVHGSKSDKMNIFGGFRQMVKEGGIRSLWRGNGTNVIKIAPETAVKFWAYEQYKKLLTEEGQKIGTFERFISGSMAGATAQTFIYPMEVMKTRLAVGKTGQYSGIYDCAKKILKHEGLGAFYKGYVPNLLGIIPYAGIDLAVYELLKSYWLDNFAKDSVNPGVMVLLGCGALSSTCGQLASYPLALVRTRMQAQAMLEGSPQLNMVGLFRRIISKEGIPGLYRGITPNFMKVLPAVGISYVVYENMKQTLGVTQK
UniProt Q15043: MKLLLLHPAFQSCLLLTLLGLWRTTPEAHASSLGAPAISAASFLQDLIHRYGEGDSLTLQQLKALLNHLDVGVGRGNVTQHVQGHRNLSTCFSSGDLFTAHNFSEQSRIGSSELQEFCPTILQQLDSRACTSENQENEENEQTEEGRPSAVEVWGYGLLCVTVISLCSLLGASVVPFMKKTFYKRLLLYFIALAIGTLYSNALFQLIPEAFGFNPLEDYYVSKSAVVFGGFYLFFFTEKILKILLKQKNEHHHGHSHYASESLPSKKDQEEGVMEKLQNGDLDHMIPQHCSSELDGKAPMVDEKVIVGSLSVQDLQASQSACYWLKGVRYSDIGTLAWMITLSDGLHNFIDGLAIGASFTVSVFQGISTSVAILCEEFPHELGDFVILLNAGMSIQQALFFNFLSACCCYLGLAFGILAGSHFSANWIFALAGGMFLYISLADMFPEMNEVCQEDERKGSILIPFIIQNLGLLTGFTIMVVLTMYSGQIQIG
UniProt Q9H1U9: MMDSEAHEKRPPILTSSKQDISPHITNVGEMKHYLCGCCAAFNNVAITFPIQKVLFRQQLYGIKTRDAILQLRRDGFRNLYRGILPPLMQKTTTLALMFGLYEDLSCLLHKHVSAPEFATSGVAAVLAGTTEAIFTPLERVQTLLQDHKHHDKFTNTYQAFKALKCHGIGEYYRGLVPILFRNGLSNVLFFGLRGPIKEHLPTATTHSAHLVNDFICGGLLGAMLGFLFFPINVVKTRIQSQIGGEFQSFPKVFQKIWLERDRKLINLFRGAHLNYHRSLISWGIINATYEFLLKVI
UniProt P04920: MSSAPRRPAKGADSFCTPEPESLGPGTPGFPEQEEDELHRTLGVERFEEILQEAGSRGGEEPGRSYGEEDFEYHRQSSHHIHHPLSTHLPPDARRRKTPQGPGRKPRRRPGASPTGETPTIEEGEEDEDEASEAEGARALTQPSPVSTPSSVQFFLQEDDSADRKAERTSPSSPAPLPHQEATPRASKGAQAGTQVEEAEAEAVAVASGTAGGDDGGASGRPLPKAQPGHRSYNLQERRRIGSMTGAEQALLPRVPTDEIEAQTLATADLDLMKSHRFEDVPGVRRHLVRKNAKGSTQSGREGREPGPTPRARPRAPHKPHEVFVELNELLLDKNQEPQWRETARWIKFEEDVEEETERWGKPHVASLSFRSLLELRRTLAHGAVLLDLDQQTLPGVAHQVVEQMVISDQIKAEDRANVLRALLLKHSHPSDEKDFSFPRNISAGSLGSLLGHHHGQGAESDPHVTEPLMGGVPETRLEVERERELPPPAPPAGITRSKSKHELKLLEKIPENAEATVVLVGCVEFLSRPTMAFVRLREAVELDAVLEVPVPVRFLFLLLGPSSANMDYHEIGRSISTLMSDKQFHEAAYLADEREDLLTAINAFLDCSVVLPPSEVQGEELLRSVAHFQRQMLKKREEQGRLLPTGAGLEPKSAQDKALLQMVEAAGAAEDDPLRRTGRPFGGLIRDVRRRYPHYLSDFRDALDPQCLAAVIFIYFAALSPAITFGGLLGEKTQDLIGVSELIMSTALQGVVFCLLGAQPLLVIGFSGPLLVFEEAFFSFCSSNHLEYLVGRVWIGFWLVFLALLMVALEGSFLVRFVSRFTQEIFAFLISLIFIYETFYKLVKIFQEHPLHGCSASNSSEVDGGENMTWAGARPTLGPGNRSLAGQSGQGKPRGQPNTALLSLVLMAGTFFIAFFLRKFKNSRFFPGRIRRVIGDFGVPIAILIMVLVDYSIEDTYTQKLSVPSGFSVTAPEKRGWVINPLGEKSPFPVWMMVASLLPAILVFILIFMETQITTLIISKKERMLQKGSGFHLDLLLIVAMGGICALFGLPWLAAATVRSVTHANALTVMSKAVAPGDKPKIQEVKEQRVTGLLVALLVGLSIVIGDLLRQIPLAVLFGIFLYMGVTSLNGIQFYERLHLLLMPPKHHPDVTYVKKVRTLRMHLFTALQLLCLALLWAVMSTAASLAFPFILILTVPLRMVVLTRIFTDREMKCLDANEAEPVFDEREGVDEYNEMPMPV
UniProt Q8NBI5: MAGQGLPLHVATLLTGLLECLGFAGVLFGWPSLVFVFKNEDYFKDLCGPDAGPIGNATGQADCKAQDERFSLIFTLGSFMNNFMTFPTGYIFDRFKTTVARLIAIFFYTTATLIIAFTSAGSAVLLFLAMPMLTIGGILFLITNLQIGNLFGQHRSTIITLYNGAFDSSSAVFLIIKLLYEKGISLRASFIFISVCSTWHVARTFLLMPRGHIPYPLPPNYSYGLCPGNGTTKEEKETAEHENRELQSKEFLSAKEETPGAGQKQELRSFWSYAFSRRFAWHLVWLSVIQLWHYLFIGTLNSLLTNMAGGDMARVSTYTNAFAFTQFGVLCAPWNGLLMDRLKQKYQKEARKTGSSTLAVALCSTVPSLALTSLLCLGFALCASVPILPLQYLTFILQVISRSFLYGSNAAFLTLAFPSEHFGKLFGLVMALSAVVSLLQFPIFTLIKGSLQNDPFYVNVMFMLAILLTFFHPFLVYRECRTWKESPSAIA
UniProt Q9H2H9: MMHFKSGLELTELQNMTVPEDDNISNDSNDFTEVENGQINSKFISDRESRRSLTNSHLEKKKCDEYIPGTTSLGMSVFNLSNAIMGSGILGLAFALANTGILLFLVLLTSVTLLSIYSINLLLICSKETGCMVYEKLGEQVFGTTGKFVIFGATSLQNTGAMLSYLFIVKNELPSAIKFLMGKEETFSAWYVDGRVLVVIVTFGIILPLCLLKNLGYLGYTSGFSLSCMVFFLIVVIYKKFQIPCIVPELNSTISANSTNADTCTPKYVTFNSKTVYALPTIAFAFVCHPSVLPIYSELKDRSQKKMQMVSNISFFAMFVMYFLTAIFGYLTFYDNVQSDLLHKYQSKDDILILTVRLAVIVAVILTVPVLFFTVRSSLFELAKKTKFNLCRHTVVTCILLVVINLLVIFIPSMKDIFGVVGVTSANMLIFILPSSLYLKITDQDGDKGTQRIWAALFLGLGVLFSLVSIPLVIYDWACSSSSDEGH
UniProt O43772: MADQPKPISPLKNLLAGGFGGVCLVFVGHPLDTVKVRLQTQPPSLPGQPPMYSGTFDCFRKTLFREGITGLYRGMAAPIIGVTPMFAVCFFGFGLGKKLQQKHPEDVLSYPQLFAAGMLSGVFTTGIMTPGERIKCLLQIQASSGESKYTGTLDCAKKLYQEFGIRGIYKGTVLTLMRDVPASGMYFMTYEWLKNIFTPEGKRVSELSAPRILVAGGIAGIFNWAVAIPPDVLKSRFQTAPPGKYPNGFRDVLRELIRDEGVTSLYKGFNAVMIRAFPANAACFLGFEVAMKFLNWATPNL
UniProt Q9Y289: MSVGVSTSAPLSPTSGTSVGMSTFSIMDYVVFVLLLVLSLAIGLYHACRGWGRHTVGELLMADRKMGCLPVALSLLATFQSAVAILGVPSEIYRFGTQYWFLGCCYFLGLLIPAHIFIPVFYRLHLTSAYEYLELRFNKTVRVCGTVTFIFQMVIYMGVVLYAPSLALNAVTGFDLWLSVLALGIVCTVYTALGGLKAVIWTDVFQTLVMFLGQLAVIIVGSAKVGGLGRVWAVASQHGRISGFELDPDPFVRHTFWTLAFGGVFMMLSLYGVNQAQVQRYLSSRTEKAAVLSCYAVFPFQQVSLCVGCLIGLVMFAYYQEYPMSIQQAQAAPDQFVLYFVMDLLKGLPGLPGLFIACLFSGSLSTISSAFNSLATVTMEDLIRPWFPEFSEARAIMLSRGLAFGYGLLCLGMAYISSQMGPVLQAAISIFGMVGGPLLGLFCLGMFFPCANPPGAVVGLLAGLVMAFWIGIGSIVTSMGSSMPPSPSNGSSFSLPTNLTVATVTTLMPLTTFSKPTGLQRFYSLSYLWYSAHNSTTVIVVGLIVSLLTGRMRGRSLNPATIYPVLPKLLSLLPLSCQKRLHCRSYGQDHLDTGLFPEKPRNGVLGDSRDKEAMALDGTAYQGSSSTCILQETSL
UniProt Q7Z2H8: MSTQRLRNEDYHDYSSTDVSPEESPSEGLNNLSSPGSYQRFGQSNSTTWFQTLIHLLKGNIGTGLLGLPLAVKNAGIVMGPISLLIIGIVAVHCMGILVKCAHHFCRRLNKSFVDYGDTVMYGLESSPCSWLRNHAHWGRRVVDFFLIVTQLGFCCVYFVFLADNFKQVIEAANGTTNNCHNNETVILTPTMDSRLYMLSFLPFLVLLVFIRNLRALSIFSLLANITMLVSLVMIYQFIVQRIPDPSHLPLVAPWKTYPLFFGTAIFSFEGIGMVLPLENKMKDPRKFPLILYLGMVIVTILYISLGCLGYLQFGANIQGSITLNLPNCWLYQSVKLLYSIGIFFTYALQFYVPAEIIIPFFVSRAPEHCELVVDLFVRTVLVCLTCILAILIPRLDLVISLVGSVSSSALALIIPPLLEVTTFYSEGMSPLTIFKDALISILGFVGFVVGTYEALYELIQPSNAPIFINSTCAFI
UniProt Q96DW6: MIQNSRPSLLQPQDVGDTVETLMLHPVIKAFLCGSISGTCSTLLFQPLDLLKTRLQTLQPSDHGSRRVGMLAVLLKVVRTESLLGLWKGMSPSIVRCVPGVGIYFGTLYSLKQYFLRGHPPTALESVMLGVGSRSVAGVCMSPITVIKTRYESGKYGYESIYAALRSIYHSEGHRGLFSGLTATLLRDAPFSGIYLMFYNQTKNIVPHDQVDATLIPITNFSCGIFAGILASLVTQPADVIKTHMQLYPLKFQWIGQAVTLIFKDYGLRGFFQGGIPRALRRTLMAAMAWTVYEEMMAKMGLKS
UniProt Q9Y2E8: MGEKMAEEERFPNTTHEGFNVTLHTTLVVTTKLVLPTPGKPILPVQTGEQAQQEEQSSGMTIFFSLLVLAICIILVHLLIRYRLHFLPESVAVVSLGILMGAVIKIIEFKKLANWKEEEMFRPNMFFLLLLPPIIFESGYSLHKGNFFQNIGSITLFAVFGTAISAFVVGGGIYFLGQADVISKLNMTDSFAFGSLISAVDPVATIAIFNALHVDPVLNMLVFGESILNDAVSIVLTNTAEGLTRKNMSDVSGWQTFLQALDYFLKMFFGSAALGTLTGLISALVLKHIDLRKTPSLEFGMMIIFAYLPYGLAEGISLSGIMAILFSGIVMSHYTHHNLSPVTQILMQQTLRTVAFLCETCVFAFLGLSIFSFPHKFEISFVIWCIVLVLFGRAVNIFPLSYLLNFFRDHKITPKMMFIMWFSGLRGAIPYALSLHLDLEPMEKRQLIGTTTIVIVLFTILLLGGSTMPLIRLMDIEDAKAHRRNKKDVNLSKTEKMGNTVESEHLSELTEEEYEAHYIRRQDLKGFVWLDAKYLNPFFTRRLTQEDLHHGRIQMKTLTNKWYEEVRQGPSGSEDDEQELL
UniProt Q8N1S5: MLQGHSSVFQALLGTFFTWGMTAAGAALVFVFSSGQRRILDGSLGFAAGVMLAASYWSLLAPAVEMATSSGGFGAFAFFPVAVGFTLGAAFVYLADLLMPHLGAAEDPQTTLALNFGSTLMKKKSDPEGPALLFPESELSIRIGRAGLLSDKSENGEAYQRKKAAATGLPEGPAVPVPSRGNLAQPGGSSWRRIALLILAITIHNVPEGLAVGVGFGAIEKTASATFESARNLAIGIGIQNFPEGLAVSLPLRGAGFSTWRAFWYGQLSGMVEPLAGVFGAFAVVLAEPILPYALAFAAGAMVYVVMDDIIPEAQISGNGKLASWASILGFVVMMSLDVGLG

[1] = compound: CC(=O)c1cnc2ccc(-c3cc(Cl)c(O)c(Cl)c3)nc2c1N[C@H]1CC[C@H](CN(C)C)CC1
Outline: as §1

ralimetinib = compound: CC(C)(C)Cn1c(N)nc2ccc(-c3[nH]c(C(C)(C)C)nc3-c3ccc(F)cc3)nc21 [ralimetinib]
Outline: as §1

[2] = compound: CC(C)(O)CC(=O)NCCn1ccc2ncnc(Nc3ccc(Oc4cccc(C(F)(F)F)c4)c(Cl)c3)c21
Outline: as §1

[3] = compound: CC(C)C1=C2N=C(C=C(N2N=C1)NCC3=CC=CC=C3)NCCCCCCN
Outline: as §1

[4] = compound: CC1=C(C(CC(=O)N1)C2=CC=C(C=C2)C(F)(F)F)C(=O)NC3=C(C=C4C(=C3)C=NN4)F
Outline: as §1

[5] = compound: CC1=C(C2=C(C=C1)C(=O)C3=CC=CC=C3N2CCCN)C
Outline: as §1

[6] = compound: CC1=C(C=C(C=C1)NC(=O)C2=CC(=CC=C2)C(C)(C)C#N)NC3=CC4=C(C=C3)N=CN(C4=O)C
Outline: as §1

[7] = compound: CC1=C(C=C(C=C1)NC(=O)C2=CC(=CC=C2)N(C)C)NC(=O)C3=CC=C(C=C3)O
Outline: as §1

[8] = compound: CC1=CC=C(C=C1)SC2=C3C=C(SC3=CN=C2)C(=O)N
Outline: as §1

Target	log2 fold change (ibrutinib)	log2 fold change [1]	log2 fold change (ralimetinib)	log2 fold change [2]	log2 fold change [3]	log2 fold change [4]	log2 fold change [5]	log2 fold change [6]	log2 fold change [7]	log2 fold change [8]
SLC4A1AP (UniProt Q9BWU0)	inactive: 0	inactive: -0.005	inactive: 0.039	inactive: -0.01	inactive: -0.001	inactive: -0.034	inactive: -0.005	inactive: 0.014	inactive: -0.001	inactive: -0.015
SLC35B2 (UniProt Q8TB61)	inactive: 0.015	inactive: 0.008	inactive: 0.002	inactive: 0.023	inactive: -0.046	inactive: -0.001	inactive: -0.042	inactive: -0.012	inactive: -0.054	inactive: -0.028
SMAP2 (UniProt Q8WU79)	inactive: -0.008	inactive: -0.008	inactive: -0.015	inactive: -0.01	inactive: 0.024	inactive: 0.034	inactive: 0.019	active: -0.286	inactive: -0.015	inactive: 0.002
SLC7A6OS (UniProt Q96CW6)	inactive: 0.04	inactive: -0.003	inactive: 0.01	inactive: -0.024	inactive: -0.021	inactive: -0.027	inactive: 0.009	inactive: 0.036	inactive: 0.025	inactive: -0.017
SLC25A40 (UniProt Q8TBP6)	inactive: 0.048	inactive: 0.003	inactive: 0.031	inactive: -0.065	inactive: -0.037	inactive: 0.015	inactive: -0.022	inactive: 0.027	inactive: 0	inactive: -0.009
SLC25A24 (UniProt Q6NUK1)	inactive: 0.02	inactive: -0.002	inactive: -0.009	inactive: -0.03	inactive: -0.022	inactive: -0.034	inactive: -0.003	inactive: 0.015	inactive: -0.029	inactive: -0.012
SLC35F6 (UniProt Q8N357)	inactive: -0.061	inactive: -0.015	inactive: 0.052	inactive: 0.032	inactive: 0.015	inactive: 0.003	inactive: -0.049	inactive: -0.068	inactive: 0.028	inactive: -0.022
SLC39A14 (UniProt Q15043)	inactive: 0.105	inactive: -0.009	inactive: -0.011	inactive: -0.042	inactive: 0	inactive: 0.005	inactive: -0.006	inactive: 0.004	inactive: -0.004	inactive: -0.039
SLC25A51 (UniProt Q9H1U9)	inactive: 0.066	inactive: 0.034	inactive: 0.044	inactive: -0.059	inactive: -0.005	inactive: -0.052	inactive: 0.025	inactive: 0.146	inactive: -0.047	inactive: -0.125
SLC4A2 (UniProt P04920)	inactive: 0.019	inactive: 0.024	inactive: 0.009	inactive: -0.077	inactive: -0.039	inactive: -0.114	inactive: 0.016	inactive: 0.034	inactive: -0.09	inactive: 0.008
SLC43A3 isoform 2 (UniProt Q8NBI5)	inactive: 0.006	inactive: 0.023	inactive: 0.028	inactive: -0.014	inactive: -0.024	inactive: 0.003	inactive: -0.026	inactive: 0	inactive: 0.007	inactive: 0.003
SLC25A32 (UniProt Q9H2D1)	inactive: 0.029	inactive: 0.005	inactive: 0.006	inactive: -0.017	inactive: -0.017	inactive: -0.03	inactive: -0.031	inactive: 0.048	inactive: -0.021	inactive: -0.007
SLC25A3 isoform 2 (UniProt Q00325)	inactive: 0.024	inactive: -0.015	inactive: 0.027	inactive: -0.01	inactive: 0.014	inactive: -0.004	inactive: -0.001	inactive: 0.032	inactive: -0.005	inactive: 0.016
SLC43A1 (UniProt O75387)	inactive: 0.106	inactive: -0.01	inactive: 0.047	inactive: -0.022	inactive: -0.018	inactive: 0.034	inactive: -0.095	inactive: 0.034	inactive: -0.033	inactive: -0.001
SLC38A1 (UniProt Q9H2H9)	inactive: 0.001	inactive: -0.053	inactive: -0.021	inactive: -0.041	inactive: 0.037	inactive: -0.001	inactive: -0.039	inactive: 0.027	inactive: 0.018	inactive: -0.01
SLC25A25 isoform 3 (UniProt Q6KCM7)	inactive: -0.015	inactive: -0.028	inactive: 0.011	inactive: 0.021	inactive: 0.018	inactive: 0.022	inactive: -0.036	inactive: 0.017	inactive: -0.012	inactive: 0.034
SLC25A20 (UniProt O43772)	inactive: 0.02	inactive: 0.023	inactive: 0.032	inactive: -0.027	inactive: -0.004	inactive: -0.027	inactive: -0.001	inactive: 0.053	inactive: -0.003	inactive: -0.017
SLC5A6 (UniProt Q9Y289)	inactive: 0.065	inactive: -0.025	inactive: 0.009	inactive: 0.006	inactive: -0.016	inactive: -0.049	inactive: -0.033	inactive: 0.022	inactive: -0.032	inactive: -0.014
SLK isoform 2 (UniProt Q9H2G2)	inactive: -0.06	inactive: 0.109	inactive: -0.01	inactive: -0.082	inactive: -0.016	inactive: -0.033	inactive: -0.007	inactive: -0.088	inactive: 0.021	inactive: 0.041
SLC7A6 (UniProt Q92536)	inactive: 0.113	inactive: -0.03	inactive: 0.027	inactive: -0.129	inactive: -0.06	inactive: -0.323	inactive: 0.005	inactive: 0.01	inactive: -0.002	inactive: -0.028
SLC9A1 (UniProt P19634)	inactive: 0.045	inactive: 0.036	inactive: -0.027	inactive: -0.063	inactive: -0.086	inactive: -0.08	inactive: 0.021	inactive: -0.044	inactive: 0.221	inactive: -0.044
SLC36A1 (UniProt Q7Z2H8)	inactive: -0.002	inactive: -0.007	inactive: 0.009	inactive: -0.003	inactive: 0.113	inactive: -0.031	inactive: -0.005	inactive: -0.086	inactive: -0.009	inactive: -0.027
SMAD9 (UniProt O15198)	inactive: -0.025	inactive: -0.018	inactive: -0.034	inactive: 0.029	inactive: 0.021	inactive: -0.038	inactive: 0.079	inactive: -0.028	inactive: -0.072	inactive: -0.029
SLC25A38 (UniProt Q96DW6)	inactive: 0.061	inactive: -0.108	inactive: -0.074	inactive: -0.003	inactive: -0.114	inactive: -0.153	inactive: -0.437	inactive: 0.002	inactive: 0.115	inactive: 0.04
SLC38A9 (UniProt Q8NBW4)	inactive: 0.15	inactive: -0.014	inactive: 0.01	inactive: -0.002	inactive: 0.028	inactive: 0.043	inactive: 0.034	inactive: -0.012	inactive: -0.011	inactive: -0.038
SLC9A8 isoform 2 (UniProt Q9Y2E8)	inactive: 0.019	inactive: 0.049	inactive: 0.093	inactive: -0.016	inactive: -0.014	inactive: -0.001	inactive: 0.03	inactive: -0.039	inactive: -0.008	inactive: 0.008
SLC7A1 (UniProt P30825)	inactive: 0.037	inactive: -0.002	inactive: 0.032	inactive: 0.006	inactive: -0.033	inactive: -0.003	inactive: 0.029	inactive: -0.053	inactive: -0.007	inactive: -0.031
SLC27A4 (UniProt Q6P1M0)	inactive: -0.004	inactive: 0.029	inactive: 0.009	inactive: -0.027	inactive: 0.049	inactive: 0.077	inactive: -0.042	inactive: -0.051	inactive: 0.028	inactive: 0.003
SLC9A3R2 (UniProt Q15599)	inactive: 0.003	inactive: -0.001	inactive: -0.01	inactive: -0.034	inactive: -0.018	inactive: 0.004	inactive: -0.015	inactive: -0.002	inactive: -0.006	inactive: -0.018
SLC39A11 (UniProt Q8N1S5)	inactive: -0.065	inactive: -0.008	inactive: -0.136	inactive: -0.042	inactive: -0.023	inactive: 0.051	inactive: 0.16	inactive: -0.074	inactive: -0.089	inactive: 0.001

Quoted at random: two records from the list.
Target	log2 fold change (ibrutinib)	log2 fold change [1]	log2 fold change (ralimetinib)	log2 fold change [2]	log2 fold change [3]	log2 fold change [4]	log2 fold change [5]	log2 fold change [6]	log2 fold change [7]	log2 fold change [8]
SLC7A1 (UniProt P30825)	inactive: 0.037	inactive: -0.002	inactive: 0.032	inactive: 0.006	inactive: -0.033	inactive: -0.003	inactive: 0.029	inactive: -0.053	inactive: -0.007	inactive: -0.031
SLC43A1 (UniProt O75387)	inactive: 0.106	inactive: -0.01	inactive: 0.047	inactive: -0.022	inactive: -0.018	inactive: 0.034	inactive: -0.095	inactive: 0.034	inactive: -0.033	inactive: -0.001
